60 molecules from PubChem BioAssay AID2685 (National Center for Advancing Translational Sciences (NCATS), 2010) can be followed below.

A short description of the test: qHTS Assay for Lipid Storage Modulators in Drosophila S3 Cells.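 As to cell number change: cells counted by Cell Tracker Red CMTPX staining in the red channel.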 The settings on record: BODIPY lipid droplet fluorescence, 18-24 h; for cell number change: measured here: cell count max response, cells fed with added oleic acid. The essentials: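 Drosophila S3 cells loaded with oleic acid (400 uM, as added) and compounds at several concentrations; lipid droplets imaged by 488-nm laser-scanning cytometry, 500–530 nm intensity and object ratio to cell channel. Percent activity normalized to 20 uM Triacsin C.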
On the technique in general: qHTS replaces the single test concentration by a dilution series.

Setting [1] is: measured here: lipid fluorescence (Fed channel) AC50, cells fed with added oleic acid.
Setting [2] is: measured here: cell number channel AC50, cells fed with added oleic acid.

The list shows a part of the results. Further columns of the screen follow, without active or inactive calls. Compounds called inactive in the main read-out are mostly missing here. The note in brackets gives the kind of curve behind each potency; many fits are weak.

Regarding `COCc1ccc(O)c2ncccc12`, the cell number change was 1.05%.

On to `CC(c1ccccn1)N(C)C(=O)c1ccc2nc(Cc3ccccc3F)oc2c1` (centres undefined), for which the cell number change was -10.4%. Further, the AC50 (commonly the midpoint of the concentration-response curve, whichever way the signal moves) under setting [1] was 0.731 µM [rising, partial curve, poor fit]. On to `CC(=O)c1ccc(Nc2nc3ccccc3nc2NS(=O)(=O)c2cccs2)cc1`, for which the cell number change is -17.7%. Also, under setting [1], the AC50 was 3.26 µM [falling, partial curve]. As for `Cc1ccccc1NC(=O)NNC(=O)COc1ccc2ccccc2c1`, the cell number change was -26.9%. For the molecule `COc1ccc(/C=C2\SC(=S)N(CC(=O)OCC(=O)Nc3ccc([N+](=O)[O-])cc3OC)C2=O)cc1`, the cell number change stood at 18.2%. For the same molecule, the AC50 under setting [2] is 6.51 µM [rising, single point]. Further, the AC50 under setting [1] is 2.31 µM [rising, full curve, poor fit]. On to `FC(F)(F)c1cccc(N2CCN(C(=S)NC3CCCCC3)CC2)c1`, for which the cell number change was found to be 7.92%. Further, under setting [1], the concentration at half-maximal activity (AC50) was 0.0731 µM [rising, full curve, poor fit]. Turning to `S=c1nc(C23CC4CC(CC(C4)C2)C3)[nH][nH]1`, the cell number change was found to be 23.5%. Moreover, the AC50 under setting [1] was 6.51 µM [rising, single point]. Regarding `CCOc1ccc(S(=O)(=O)N2CCC(C(=O)NC3CCCCC3)CC2)cc1`, the cell number change was 29.5%. In addition, under setting [1], the AC50 is 20.6 µM [rising, partial curve].

In the case of `CSc1cc(C)n(-c2ccccc2C)c(=S)c1C(C)=O`, the AC50 under setting [1] is 18.4 µM [falling, partial curve]. With `Cc1ccc2c(C)c(C(=O)N3CCN(Cc4ccc5c(c4)OCO5)CC3)oc2c1C`, the cell number change is -0.763%. For `O=C1OCC2=C1C(c1ccc(F)cc1)Sc1ccccc1N2` (centres undefined), the cell number change was -56.2%. In addition, the AC50 under setting [2] was 14.6 µM [falling, single point]. For `Oc1c(C(c2cccs2)N2CCN(c3ccccc3)CC2)ccc2cccnc12` (centres undefined), the cell number change amounted to 15.3%. For the same molecule, under setting [2], the AC50 is 0.146 µM [falling, full curve, poor fit]. For the molecule `Cc1cc(C(=O)OCC(=O)NC(C)(C)C)c2ccccc2n1`, the cell number change is -7.87%. For the same molecule, the AC50 under setting [2] is 0.92 µM [rising, partial curve].

With `O=S(=O)(NCc1ccccc1)NCc1ccccc1F`, the cell number change is -28.9%. Besides, the AC50 under setting [2] was 0.116 µM [falling, full curve]. `CCN(CC)C(=S)NC(=O)c1ccc(OC)c(Br)c1`: the cell number change turned out to be 6%. Also, under setting [1], the AC50 is 18.4 µM [rising, single point]. For `Cc1nc(SCC(=O)NCc2ccccc2)c2c(=O)n(C)c(=O)n(C)c2n1`, the concentration at half-maximal activity (AC50) under setting [2] was 0.731 µM [rising, single point] and the AC50 under setting [1] was 0.58 µM [rising, single point]. As for `Cc1no[n+]([O-])c1COc1ccccc1/C=C1\NC(=S)NC1=O`, the cell number change turned out to be 70.3%. In addition, the concentration at half-maximal activity (AC50) under setting [2] was 8.2 µM [rising, partial curve]. In addition, the AC50 under setting [1] is 6.51 µM [rising, single point]. As for `O=C(c1ccccc1Oc1ccccc1)N1CCN(c2ccccc2F)CC1`, the AC50 under setting [2] is 2.91 µM [rising, single point] and the AC50 under setting [1] was 6.51 µM [rising, partial curve].

As for `Cc1cc2c(c(=O)n1CCc1ccccc1)C(c1ccco1)C(C#N)=C(N)O2` (centres undefined), the cell number change turned out to be 63.4%. For the same molecule, the AC50 under setting [2] was 0.517 µM [rising, full curve, poor fit]. Moreover, the AC50 under setting [1] is 1.3 µM [rising, full curve].

Take `O=C1c2ccccc2C(=O)c2c(NCc3cccnc3)cccc21`: the cell number change was -3.31%. As for `O=C(CS(=O)(=O)c1ccc(F)cc1)N1CCN(c2ccccc2)CC1`, the cell number change is 40.7%. The concentration at half-maximal activity (AC50) under setting [2] was 14.6 µM [rising, single point]. `CC(=O)c1cccc(NC(=O)COC(=O)CCc2ccc(S(=O)(=O)N3CCOCC3)cc2)c1`: the cell number change was -6.83%. For `Cc1ccc(OCC(=O)N(C)CC(=O)NCc2ccco2)c(Br)c1`, the cell number change is 26.9%.

For `OCCc1c[nH]c2ccc(OCc3ccccc3)cc12`, the cell number change was -38.1%. For the same molecule, the AC50 under setting [2] was 9.2 µM [falling, partial curve, poor fit]. Also, the concentration at half-maximal activity (AC50) under setting [1] was 3.26 µM [falling, full curve, poor fit]. As for `CC(C(=O)NCCC1=CCCCC1)c1ccc([N+](=O)[O-])cc1` (centres undefined), the cell number change is -31.6%. For the same molecule, under setting [2], the AC50 is 0.058 µM [falling, full curve]. Under setting [1], the AC50 was 18.4 µM [falling, single point]. `CCOc1ccc(N2C(=O)c3ccc(C(=O)OCc4c(C)noc4C)cc3C2=O)cc1`: the cell number change turned out to be 3%.

For the molecule `CCCc1ccc(S(=O)(=O)N2CCN(Cc3ccco3)CC2)cc1`, the cell number change was -13.3%. In addition, under setting [1], the concentration at half-maximal activity (AC50) is 23.1 µM [rising, single point]. For the molecule `COc1ccccc1CNC(=O)C(CC(C)C)NC(=O)C1CCC(C)CC1` (centres undefined), the cell number change is -33.9%. In addition, the AC50 under setting [2] is 2.31 µM [falling, full curve, poor fit]. For the same molecule, the concentration at half-maximal activity (AC50) under setting [1] was 4.11 µM [falling, single point]. As for `O=S(=O)(NCC1CCCO1)c1ccc(-c2ccc(S(=O)(=O)NCC3CCCO3)cc2)cc1` (centres undefined), the cell number change is -39.6%. Moreover, the AC50 under setting [2] was 13 µM [falling, single point]. Also, under setting [1], the AC50 is 16.4 µM [falling, single point]. With `O=C1/C(=C\c2cc(Br)cc(Br)c2O)SC(=S)N1Cc1ccccc1`, the cell number change was -28.2%. Also, the concentration at half-maximal activity (AC50) under setting [2] is 2.31 µM [falling, full curve, poor fit]. Further, the concentration at half-maximal activity (AC50) under setting [1] was 1.84 µM [falling, partial curve, poor fit]. Regarding `COc1ccc(Nc2nc(-c3ccccc3)c3ccccc3n2)cc1`, the cell number change amounted to 6.96%. Besides, under setting [1], the AC50 was 2.91 µM [rising, full curve, poor fit].

On to `COc1ccc(S(=O)(=O)Nc2ccccc2C)cc1`, for which the cell number change was 60.2%. Further, the half-maximal activity concentration (AC50) under setting [2] was 14.6 µM [rising, partial curve]. Moreover, the AC50 under setting [1] was 16.4 µM [rising, partial curve].

Turning to `CCOC(=O)c1ccccc1NC(=O)CN(c1cccc(OC)c1)S(C)(=O)=O`, the cell number change is -36.6%. In addition, the AC50 under setting [2] was 1.84 µM [falling, partial curve, poor fit]. The half-maximal activity concentration (AC50) under setting [1] was 29.1 µM [falling, single point]. For the molecule `Cc1cccc(NC(=O)[C@H](Cc2c[nH]c3ccccc23)NC(=O)[C@@H]2Cc3ccccc3CN2)c1`, the cell number change came to 1.01%. Moreover, the AC50 under setting [1] is 3.66 µM [falling, full curve]. On to `COc1cc(NC(C)CCCN)c2ncccc2c1` (centres undefined), for which the cell number change is 28.7%. Further, the concentration at half-maximal activity (AC50) under setting [1] is 29.1 µM [falling, single point]. Take `Cc1ccc(NC(=O)CSc2ccc3c(c2)OCCO3)nc1`: the cell number change is -18.7%. In addition, the concentration at half-maximal activity (AC50) under setting [1] is 0.651 µM [falling, single point]. Take `COc1ccc(/C=N/NC(=O)CN2CCCCCCC2)c(C)c1C`: the cell number change was -5.1%. Moreover, the AC50 under setting [1] was 0.651 µM [falling, single point]. On to `Cc1cc(C)c[n+](C(C)C(=O)c2ccc(Cl)cc2)c1` (centres undefined), for which the cell number change was -11.6%. In the case of `Cc1cc(=O)c2ccc(Cl)cc2[nH]1`, the cell number change worked out at 9.66%. Further, under setting [1], the half-maximal activity concentration (AC50) is 0.206 µM [rising, full curve, poor fit]. Regarding `Cc1ccc(Nc2nc3ccccc3c(=O)s2)cc1C`, the cell number change was -2.96%. Under setting [1], the AC50 is 0.291 µM [falling, full curve, poor fit]. Regarding `CCOc1cccc(C(=O)NC(=S)Nc2cccnc2)c1`, the cell number change amounted to 96.6%. Also, under setting [2], the AC50 was 3.66 µM [rising, full curve]. Further, the AC50 under setting [1] was 18.4 µM [rising, partial curve]. With `O=C(Nc1ccc2ccccc2c1)C(c1ccccc1)C1CCCC1` (centres undefined), the cell number change was -18%. Moreover, the AC50 under setting [1] is 0.0291 µM [falling, full curve, poor fit]. On to `Cc1cccc(C(=O)OC2CCOC2=O)c1O` (centres undefined), for which the AC50 under setting [1] is 0.82 µM [falling, full curve]. `Cc1cc(C)n(CC(=O)NCCC2=CCCCC2)n1`: the cell number change turned out to be 33.3%. Further, the half-maximal activity concentration (AC50) under setting [2] was 32.6 µM [rising, single point]. Consider `O=C(COC(=O)CNC(=O)C1CCCCC1)Nc1ccccc1Cl`, for which the cell number change was 4.46%. In addition, the AC50 under setting [1] was 0.13 µM [falling, single point].

As for `CCOC(=O)/C(C#N)=C1/SC(C)C(=O)N1c1ccc(Br)cc1` (centres undefined), the cell number change was -19.6%. Under setting [1], the AC50 is 25.9 µM [falling, partial curve, poor fit]. Regarding `O=C1CCCC/C1=C/Nc1ccc2c(c1)OCO2`, the cell number change came to 14.8%. For the same molecule, the AC50 under setting [1] was 2.59 µM [rising, full curve]. Turning to `O=C(CCc1nc(-c2ccccc2)no1)Nc1cc(C(F)(F)F)ccc1Cl`, the cell number change was -23.6%. Besides, the half-maximal activity concentration (AC50) under setting [1] is 29.1 µM [falling, single point]. For the molecule `Cc1cccc(NC(=O)c2cccc(S(=O)(=O)N3CCCCC3)c2)c1`, the cell number change came to 19%. As to `Cn1c(=O)n(C)c2cc(S(=O)(=O)NCc3ccccc3)ccc21`, the cell number change was -22.2%.

Regarding `COc1ccc(-c2ccc(-c3noc(-c4cccc(OC)c4)n3)c(OC)n2)cc1`, the cell number change was found to be 1.75%.

`COc1ccc(OC)c(NC(=O)COc2ccc(Br)cc2)c1`: the cell number change is 24.1%. In addition, under setting [1], the AC50 was 29.1 µM [rising, single point]. For the molecule `CC1CN(C(=O)c2ccccc2C(=O)c2ncc[nH]2)CC(C)O1` (centres undefined), the cell number change was -5.22%. The half-maximal activity concentration (AC50) under setting [2] is 1.03 µM [falling, full curve]. Further, the AC50 under setting [1] is 5.17 µM [falling, full curve].

With `COc1ccc(CCNC(=O)COC(=O)c2cc(=O)c3ccccc3o2)cc1`, the cell number change is 20.3%. For the same molecule, the AC50 under setting [1] was 0.326 µM [rising, full curve, poor fit]. For the molecule `CCSc1nc2c(c(=O)[nH]1)C(c1cccnc1)C(C(=O)OC)=C(C)N2` (centres undefined), the cell number change came to 14.6%. For the same molecule, under setting [1], the concentration at half-maximal activity (AC50) is 9.2 µM [rising, partial curve, poor fit]. Take `CC(=O)N1CCN(C(=O)COc2ccc(Br)cc2)CC1`: the cell number change is -162%. Besides, the concentration at half-maximal activity (AC50) under setting [2] is 29.1 µM [falling, single point].

Consider `COc1ccc(/C=N/NC(=O)c2ccc3nc[nH]c3c2)cc1OC`, for which the cell number change was found to be 17.6%. Also, the AC50 under setting [1] is 0.259 µM [rising, full curve, poor fit]. For the molecule `CCNS(=O)(=O)c1ccc(NC(=O)Cn2cc([N+](=O)[O-])cn2)cc1`, the cell number change is -30.3%. Also, under setting [2], the AC50 was 3.26 µM [falling, single point]. With `COc1ccc2occ(C(=O)c3ccc(N)cc3)c2c1`, the cell number change amounted to 3.55%. For the same molecule, under setting [1], the AC50 is 4.61 µM [rising, full curve, poor fit]. Take `O=C1CC(=O)Nc2cc(S(=O)(=O)N3CCN(c4cccc(C(F)(F)F)c4)CC3)ccc2N1`: the cell number change is -11.5%. The AC50 under setting [1] was 0.00517 µM [falling, full curve, poor fit].
